{"sequences": {"note": "By UniProt entry, the sequences of proteins in these tests, tags left out.", "UniProt P09382, whole entry": "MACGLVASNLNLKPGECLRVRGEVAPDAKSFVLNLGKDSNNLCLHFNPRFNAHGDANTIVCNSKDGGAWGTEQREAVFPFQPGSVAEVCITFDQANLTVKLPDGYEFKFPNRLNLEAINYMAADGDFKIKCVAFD"}, "source": "paper PMC11850616", "about": "“Nanomolar inhibitor of the galectin-8 N-terminal domain binds via a non-canonical cation-π interaction” (Communications Chemistry, 2025)", "target": "Gal-1 (Homo sapiens, UniProt P09382)", "test": "competitive fluorescence polarisation assay, Gal-1", "details": "ratio of FP Kd values", "note": "A number of entries come with more than one value. They are shown here; other results are not. The source may hold further records. Results that share an entry read as repeated measurements (runs, samples, wells or individuals)."}
{"smiles": "C#CCO[C@@H]1[C@@H](OCc2nc3ccc(C(=O)O)cc3n2C)[C@@H](O)[C@@H](CO)O[C@@H]1Sc1ccc(Cl)c(Cl)c1", "note": "[Compound 11]", "values": [{"measurement": "Gal-1 selectivity ratio Kd (Gal-1)/Kd (Gal-8N)", "value": "about 13 and 12.5"}]}
